Literature values in patent US20190010217A1, “MOBILIZING HIV-INFECTED CELLS FROM LYMPHATIC RESERVOIRS” (INDIANA UNIVERSITY RESEARCH & TECHNOLOGY CORPORATION, priority 2016, published 2019).
For at least one compound, name, drawing or mass did not settle the structure.

Test system: peripheral blood lymphocyte counts
Conditions: in animal models and in humans; CD4+ T cells, CD8+ T cells and B cells affected; cited from earlier work

## CCCCCCCCc1ccc(CCC(N)(CO)CO)cc1 [FTY 720, fingolimod]
  peripheral blood lymphocyte counts: reduces peripheral blood lymphocyte counts
